Test results taken from publication PMC5356604.

Protein sequences, listed by entry. Tags and fused reporters are not part of them.
UniProt P08151: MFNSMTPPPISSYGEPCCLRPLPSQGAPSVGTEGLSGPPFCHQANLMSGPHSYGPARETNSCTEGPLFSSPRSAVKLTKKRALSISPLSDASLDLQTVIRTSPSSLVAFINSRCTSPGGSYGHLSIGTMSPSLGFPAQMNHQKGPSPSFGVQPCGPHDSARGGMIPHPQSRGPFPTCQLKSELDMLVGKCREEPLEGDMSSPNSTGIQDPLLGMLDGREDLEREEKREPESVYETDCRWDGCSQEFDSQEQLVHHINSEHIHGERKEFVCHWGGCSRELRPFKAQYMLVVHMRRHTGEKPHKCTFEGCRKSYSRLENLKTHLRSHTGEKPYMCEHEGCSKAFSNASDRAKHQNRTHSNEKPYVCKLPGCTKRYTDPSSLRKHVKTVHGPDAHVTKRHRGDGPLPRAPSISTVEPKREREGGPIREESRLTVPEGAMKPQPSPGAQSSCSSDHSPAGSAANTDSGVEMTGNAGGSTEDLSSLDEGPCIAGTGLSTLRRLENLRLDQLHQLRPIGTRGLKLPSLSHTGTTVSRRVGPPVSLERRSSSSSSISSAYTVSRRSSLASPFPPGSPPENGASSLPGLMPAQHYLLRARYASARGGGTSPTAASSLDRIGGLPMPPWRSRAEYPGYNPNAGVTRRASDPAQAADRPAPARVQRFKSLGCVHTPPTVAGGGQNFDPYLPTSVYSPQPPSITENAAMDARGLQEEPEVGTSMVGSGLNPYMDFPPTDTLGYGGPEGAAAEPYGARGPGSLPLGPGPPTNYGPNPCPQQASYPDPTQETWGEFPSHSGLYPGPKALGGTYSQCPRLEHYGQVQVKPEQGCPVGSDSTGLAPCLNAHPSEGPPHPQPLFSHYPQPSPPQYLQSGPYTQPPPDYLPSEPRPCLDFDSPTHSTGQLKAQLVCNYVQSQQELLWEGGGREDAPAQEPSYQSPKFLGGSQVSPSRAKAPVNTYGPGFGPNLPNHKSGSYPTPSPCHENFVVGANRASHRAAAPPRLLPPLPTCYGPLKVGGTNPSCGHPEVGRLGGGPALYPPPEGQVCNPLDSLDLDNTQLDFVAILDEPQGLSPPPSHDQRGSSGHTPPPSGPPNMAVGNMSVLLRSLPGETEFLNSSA

Target: HA-tagged Gli1 (expressed in HEK293T cells) (UniProt P08151)
Assay: affinity purification with mass spectrometry; HA-Gli1 transfected into HEK293T cells and immunoprecipitated; bound proteins separated by SDS-PAGE, silver stained, differential bands identified by mass spectrum

binding: binds
B1: WW45 (endogenous, HEK293T cells) (protein, UniProt Q9H4B6 1-383)
chain: MLSRKKTKNEVSKPAEVQGKYVKKETSPLLRNLMPSFIRHGPTIPRRTDICLPDSSPNAFSTSGDVVSRNQSFLRTPIQRTPHEIMRRESNRLSAPSYLARSLADVPREYGSSQSFVTEVSFAVENGDSGSRYYYSDNFFDGQRKRPLGDRAHEDYRYYEYNHDLFQRMPQNQGRHASGIGRVAATSLGNLTNHGSEDLPLPPGWSVDWTMRGRKYYIDHNTNTTHWSHPLEREGLPPGWERVESSEFGTYYVDHTNKKAQYRHPCAPSVPRYDQPPPVTYQPQQTERNQSLLVPANPYHTAEIPDWLQVYARAPVKYDHILKWELFQLADLDTYQGMLKLLFMKELEQIVKMYEAYRQALLTELENRKQRQQWYAQQHGKNF

These are yes or no findings as the source states them, for the method shown. In cells and extracts the contact can be indirect. These calls come from enrichment with a bait or labelling near it, and not all partners need be listed.
